From patent US12454507B2, “Compounds having a fungicidal activity, their agronomic compositions and use thereof for the control of phytopathogenic fungi” (ISAGRO S.p.A., priority 2019, dated 2025)
Some results were stated once for a whole list of compounds, not compound by compound.

Key:
Phakopsora pachyrhizi = assay: Preventive fungicidal activity (5 days) against Phakopsora pachyrhizi on soya; type: in vivo; conditions: 30 ppm
Puccinia Recondita = assay: Preventive fungicidal activity (5 days) against Puccinia recondita on wheat; type: in vivo; conditions: dose of 250 ppm
Method: Leaves of wheat plants of the […] variety, grown in pots in a conditioned environment at 20° C. and 70% of Relative Humidity (RH), were treated by spraying both sides of the leaves with the compound under examination dispersed in a hydroacetone solution at 20% by volume of acetone. […] After spraying, the plants were kept in a humidity-saturated environment at a temperature ranging from 18 to 24° C. for the incubation period of the fungus (1 day). At the end of this period, the plants were put in a greenhouse with a relative humidity (RH) of 70% and at a temperature of 18-24° C. for 14 days At the end of this period, the external symptoms of the pathogen appeared and it was therefore possible to proceed with the visual evaluation of the intensity of the infection, both on the parts treated directly with the products (T) and on the parts developed during the implementation of the test (NT).

## CCCCCCC[C@H](C)OC(=O)[C@H](C)NC(=O)c1cccc(NC=O)c1O [Compound 249]
Phakopsora pachyrhizi
  control of the pathogen: exceeding 80%
Puccinia Recondita
  activity (fungicidal, Puccinia recondita on wheat): greater than 80%
